In US20250283871A1, “COMPOSITIONS AND METHODS FOR MODULATING THE INTERACTION BETWEEN SS18-SSX FUSION ONCOPROTEIN AND NUCLEOSOMES” (Dana-Farber Cancer Institute, Inc., priority 2020, published 2025):

B1: BDH1 (protein, UniProt Q02338 47-343, looked up)
D-beta-hydroxybutyrate …: ASAAEPVGSKAVLVTGCDSGFGFSLAKHLHSKGFLVFAGCLMKDKGHDGVKELDSLNSDRLRTVQLNVCSSEEVEKVVEIVRSSLKDPEKGMWGLVNNAGISTFGEVEFTSLETYKQVAEVNLWGTVRMTKSFLPLIRRAKGRVVNISSMLGRMANPARSPYCITKFGVEAFSDCLRYEMYPLGVKVSVVEPGNFIAATSLYSPESIQAIAKKMWEELPEVVRKDYGKKYFDEKIAKMETYCSSGSTDTSPVIDAVTHALTATTPYTRYHPMDYYWWLRMQIMTHLPGAISDMIYIR
B2: FLVCR1 (protein, UniProt Q9Y5Y0 1-555, looked up)
Choline/ethanolamine …: MARPDDEEGAAVAPGHPLAKGYLPLPRGAPVGKESVELQNGPKAGTFPVNGAPRDSLAAASGVLGGPQTPLAPEEETQARLLPAGAGAETPGAESSPLPLTALSPRRFVVLLIFSLYSLVNAFQWIQYSIISNVFEGFYGVTLLHIDWLSMVYMLAYVPLIFPATWLLDTRGLRLTALLGSGLNCLGAWIKCGSVQQHLFWVTMLGQCLCSVAQVFILGLPSRIASVWFGPKEVSTACATAVLGNQLGTAVGFLLPPVLVPNTQNDTNLLACNISTMFYGTSAVATLLFILTAIAFKEKPRYPPSQAQAALQDSPPEEYSYKKSIRNLFKNIPFVLLLITYGIMTGAFYSVSTLLNQMILTYYEGEEVNAGRIGLTLVVAGMVGSILCGLWLDYTKTYKQTTLIVYILSFIGMVIFTFTLDLRYIIIVFVTGGVLGFFMTGYLPLGFEFAVEITYPESEGTSSGLLNASAQIFGILFTLAQGKLTSDYGPKAGNIFLCVWMFIGIILTALIKSDLRRHNINIGITNVDVKAIPADSPTDQEPKTVMLSKQSESAI
B3: DDX3X (protein, UniProt O00571 2-662, looked up)
ATP-dependent RNA helicase …: SHVAVENALGLDQQFAGLDLNSSDNQSGGSTASKGRYIPPHLRNREATKGFYDKDSSGWSSSKDKDAYSSFGSRSDSRGKSSFFSDRGSGSRGRFDDRGRSDYDGIGSRGDRSGFGKFERGGNSRWCDKSDEDDWSKPLPPSERLEQELFSGGNTGINFEKYDDIPVEATGNNCPPHIESFSDVEMGEIIMGNIELTRYTRPTPVQKHAIPIIKEKRDLMACAQTGSGKTAAFLLPILSQIYSDGPGEALRAMKENGRYGRRKQYPISLVLAPTRELAVQIYEEARKFSYRSRVRPCVVYGGADIGQQIRDLERGCHLLVATPGRLVDMMERGKIGLDFCKYLVLDEADRMLDMGFEPQIRRIVEQDTMPPKGVRHTMMFSATFPKEIQMLARDFLDEYIFLAVGRVGSTSENITQKVVWVEESDKRSFLLDLLNATGKDSLTLVFVETKKGADSLEDFLYHEGYACTSIHGDRSQRDREEALHQFRSGKSPILVATAVAARGLDISNVKHVINFDLPSDIEEYVHRIGRTGRVGNLGLATSFFNERNINITKDLLDLLVEAKQEVPSWLENMAYEHHYKGSSRGRSKSSRFSGGFGARDYRQSSGASSSSFSSSRASSSRSGGGGHGSSRGFGGGGYGGFYNSDGYGGNYNSQGVDWWGN
B4: WAPL (protein, UniProt Q7Z5K2 1-1190, looked up)
Wings apart-like protein …: MTSRFGKTYSRKGGNGSSKFDEVFSNKRTTLSTKWGETTFMAKLGQKRPNFKPDIQEIPKKPKVEEESTGDPFGFDSDDESLPVSSKNLAQVKCSSYSESSEAAQLEEVTSVLEANSKISHVVVEDTVVSDKCFPLEDTLLGKEKSTNRIVEDDASISSCNKLITSDKVENFHEEHEKNSHHIHKNADDSTKKPNAETTVASEIKETNDTWNSQFGKRPESPSEISPIKGSVRTGLFEWDNDFEDIRSEDCILSLDSDPLLEMKDDDFKNRLENLNEAIEEDIVQSVLRPTNCRTYCRANKTKSSQGASNFDKLMDGTSQALAKANSESSKDGLNQAKKGGVSCGTSFRGTVGRTRDYTVLHPSCLSVCNVTIQDTMERSMDEFTASTPADLGEAGRLRKKADIATSKTTTRFRPSNTKSKKDVKLEFFGFEDHETGGDEGGSGSSNYKIKYFGFDDLSESEDDEDDDCQVERKTSKKRTKTAPSPSLQPPPESNDNSQDSQSGTNNAENLDFTEDLPGVPESVKKPINKQGDKSKENTRKIFSGPKRSPTKAVYNARHWNHPDSEELPGPPVVKPQSVTVRLSSKEPNQKDDGVFKAPAPPSKVIKTVTIPTQPYQDIVTALKCRREDKELYTVVQHVKHFNDVVEFGENQEFTDDIEYLLSGLKSTQPLNTRCLSVISLATKCAMPSFRMHLRAHGMVAMVFKTLDDSQHHQNLSLCTAALMYILSRDRLNMDLDRASLDLMIRLLELEQDASSAKLLNEKDMNKIKEKIRRLCETVHNKHLDLENITTGHLAMETLLSLTSKRAGDWFKEELRLLGGLDHIVDKVKECVDHLSRDEDEEKLVASLWGAERCLRVLESVTVHNPENQSYLIAYKDSQLIVSSAKALQHCEELIQQYNRAEDSICLADSKPLPHQNVTNHVGKAVEDCMRAIIGVLLNLTNDNEWGSTKTGEQDGLIGTALNCVLQVPKYLPQEQRFDIRVLGLGLLINLVEYSARNRHCLVNMETSCSFDSSICSGEGDDSLRIGGQVHAVQALVQLFLERERAAQLAESKTDELIKDAPTTQHDKSGEWQETSGEIQWVSTEKTDGTEEKHKKEEEDEELDLNKALQHAGKHMEDCIVASYTALLLGCLCQESPINVTTVREYLPEGDFSIMTEMLKKFLSFMNLTCAVGTTGQKSISRVIEYLEHC
B5: HSDL2 (protein, UniProt Q6YN16 1-418, looked up)
Hydroxysteroid …: MLPNTGRLAGCTVFITGASRGIGKAIALKAAKDGANIVIAAKTAQPHPKLLGTIYTAAEEIEAVGGKALPCIVDVRDEQQISAAVEKAIKKFGGIDILVNNASAISLTNTLDTPTKRLDLMMNVNTRGTYLASKACIPYLKKSKVAHILNISPPLNLNPVWFKQHCAYTIAKYGMSMYVLGMAEEFKGEIAVNALWPKTAIHTAAMDMLGGPGIESQCRKVDIIADAAYSIFQKPKSFTGNFVIDENILKEEGIENFDVYAIKPGHPLQPDFFLDEYPEAVSKKVESTGAVPEFKEEKLQLQPKPRSGAVEETFRIVKDSLSDDVVKATQAIYLFELSGEDGGTWFLDLKSKGGNVGYGEPSDQADVVMSMTTDDFVKMFSGKLKPTMAFMSGKLKIKGNMALAIKLEKLMNQMNARL
B6: ZNF362 (protein, UniProt Q5T0B9 1-420, looked up)
Zinc finger protein 362: MSRSSPSGKGHSRMAEPRFNNPYFWPPPPTMPSQLDNLVLINKIKEQLMAEKIRPPHLPPTSASSQQPLLVPPAPAESSQAVMSLPKLQQVPGLHPQAVPQPDVALHARPATSTVTGLGLSTRTPSVSTSESSAGAGTGTGTSTPSTPTTTSQSRLIASSPTLISGITSPPLLDSIKTIQGHGLLGPPKSERGRKKIKAENPGGPPVLVVPYPILASGETAKEGKTYRCKVCPLTFFTKSEMQIHSKSHTEAKPHKCPHCSKSFANASYLAQHLRIHLGVKPYHCSYCDKSFRQLSHLQQHTRIHTGDRPYKCPHPGCEKAFTQLSNLQSHQRQHNKDKPYKCPNCYRAYSDSASLQIHLSAHAIKHAKAYCCSMCGRAYTSETYLMKHMSKHTVVEHLVSHHSPQRTESPGIPVRISLI
B7: FIGNL1 (protein, UniProt Q6PIW4 1-674, looked up)
Fidgetin-like protein 1: MQTSSSRSVHLSEWQKNYFAITSGICTGPKADAYRAQILRIQYAWANSEISQVCATKLFKKYAEKYSAIIDSDNVESGLNNYAENILTLAGSQQTDSDKWQSGLSINNVFKMSSVQKMMQAGKKFKDSLLEPALASVVIHKEATVFDLPKFSVCGSSQESDSLPNSAHDRDRTQDFPESNRLKLLQNAQPPMVTNTARTCPTFSAPVGESATAKFHVTPLFGNVKKENHSSAKENIGLNVFLSNQSCFPAACENPQRKSFYGSGTIDALSNPILNKACSKTEDNGPKEDSSLPTFKTAKEQLWVDQQKKYHQPQRASGSSYGGVKKSLGASRSRGILGKFVPPIPKQDGGEQNGGMQCKPYGAGPTEPAHPVDERLKNLEPKMIELIMNEIMDHGPPVNWEDIAGVEFAKATIKEIVVWPMLRPDIFTGLRGPPKGILLFGPPGTGKTLIGKCIASQSGATFFSISASSLTSKWVGEGEKMVRALFAVARCQQPAVIFIDEIDSLLSQRGDGEHESSRRIKTEFLVQLDGATTSSEDRILVVGATNRPQEIDEAARRRLVKRLYIPLPEASARKQIVINLMSKEQCCLSEEEIEQIVQQSDAFSGADMTQLCREASLGPIRSLQTADIATITPDQVRPIAYIDFENAFRTVRPSVSPKDLELYENWNKTFGCGK
B8: VANGL1 (protein, UniProt Q8TAA9 1-524, looked up)
Vang-like protein 1: MDTESTYSGYSYYSSHSKKSHRQGERTRERHKSPRNKDGRGSEKSVTIQPPTGEPLLGNDSTRTEEVQDDNWGETTTAITGTSEHSISQEDIARISKDMEDSVGLDCKRYLGLTVASFLGLLVFLTPIAFILLPPILWRDELEPCGTICEGLFISMAFKLLILLIGTWALFFRKRRADMPRVFVFRALLLVLIFLFVVSYWLFYGVRILDSRDRNYQGIVQYAVSLVDALLFIHYLAIVLLELRQLQPMFTLQVVRSTDGESRFYSLGHLSIQRAALVVLENYYKDFTIYNPNLLTASKFRAAKHMAGLKVYNVDGPSNNATGQSRAMIAAAARRRDSSHNELYYEEAEHERRVKKRKARLVVAVEEAFIHIQRLQAEEQQKAPGEVMDPREAAQAIFPSMARALQKYLRITRQQNYHSMESILQHLAFCITNGMTPKAFLERYLSAGPTLQYDKDRWLSTQWRLVSDEAVTNGLRDGIVFVLKCLDFSLVVNVKKIPFIILSEEFIDPKSHKFVLRLQSETSV
B9: XXYLT1 (protein, UniProt Q8NBI6 1-393, looked up)
Xyloside xylosyltransferase 1: MGLLRGGLPCARAMARLGAVRSHYCALLLAAALAVCAFYYLGSGRETFSSATKRLKEARAGAPAAPSPPALELARGSVAPAPGAKAKSLEGGGAGPVDYHLLMMFTKAEHNAALQAKARVALRSLLRLAKFEAHEVLNLHFVSEEASREVAKGLLRELLPPAAGFKCKVIFHDVAVLTDKLFPIVEAMQKHFSAGLGTYYSDSIFFLSVAMHQIMPKEILQIIQLDLDLKFKTNIRELFEEFDSFLPGAIIGIAREMQPVYRHTFWQFRHENPQTRVGGPPPEGLPGFNSGVMLLNLEAMRQSPLYSRLLEPAQVQQLADKYHFRGHLGDQDFFTMIGMEHPKLFHVLDCTWNRQLCTWWRDHGYSDVFEAYFRCEGHVKIYHGNCNTPIPED
B10: RAP2B (protein, UniProt P61225 1-180, looked up)
Ras-related protein Rap-2b: MREYKVVVLGSGGVGKSALTVQFVTGSFIEKYDPTIEDFYRKEIEVDSSPSVLEILDTAGTEQFASMRDLYIKNGQGFILVYSLVNQQSFQDIKPMRDQIIRVKRYERVPMILVGNKVDLEGEREVSYGEGKALAEEWSCPFMETSAKNKASVDELFAEIVRQMNYAAQPNGDEGCCSAC

tested on: BAF complex subunits and histone proteins; assay: Mass spectrometry proteomics of purified HA-SS18 WT and HA-SS18-SSX1 complexes (Tables 5A-5E); parameters: species or system human; conditions: HA-SS18SSX1_NE_peptides: protein co-purified with HA-SS18-SSX1 BAF complexes from soluble nuclear extract (NE), HEK-293T cells

Molecule | Total (peptides) | Unique (peptides)
B1 | 1 | 1
B2 | 1 | 1
B3 | 1 | 1
B4 | 1 | 1
B5 | 1 | 1
B6 | 1 | 1
B7 | 1 | 1
B8 | 1 | 1
B9 | 1 | 1
B10 | 1 | 1

same assay, conditions: HA-SS18WT_CHR_peptides: protein identified in HA-SS18 WT BAF complex purification from nuclease-treated solubilized chromatin (CHR), HEK-293T

Molecule | Total (total peptides) | Unique (unique peptides)
B3 | 1 | 1

same assay, conditions: HA-SS18WT_NE_peptides: proteins co-purified with HA-SS18 WT from nuclear extract (NE), HEK-293T

Molecule | Total (peptides) | Unique (peptides)
B1 | 1 | 1
B5 | 1 | 1
B6 | 1 | 1
B8 | 1 | 1
B10 | 2 | 2
